Test results from patent US8921426B2, “Cationic bis-urea compounds as effective antimicrobial agents” (International Business Machines Corporation, priority 2012, dated 2014).
Some results were stated once for a whole list of compounds, not compound by compound.

How the values were obtained:
[1] = tested on: Cryptococcus neoformans (C. neoformans); assay: MIC, broth microdilution, C. neoformans; assay type: cell-based; details: summary statement
Protocol: (§1) The minimum inhibitory concentration (MIC) of each of the cationic compounds was measured using a broth microdilution method. The cationic compound were dissolved in DI water at a concentration of 2500 mg/L. The samples were further diluted to 31.25, 62.5, 125, 250.0, 500.0 and 1000.0 mg/L using TSB or YMB. The B. subtilis cells were grown in TSB overnight in an incubator at 37° C. The C. albicans cells were grown in YMB at room temperature. The optical density of the bacterial solution was adjusted to OD600 nm=0.07 to 0.08 by the addition of TSB or YMB. This bacterial solution was further diluted 1000 times. Cationic compound solution (100 microliters) was transferred to each well of 96 well plates (NUNC), followed by the addition of 100 microliters of the bacterial solution. TSB or YMB was used as control. B. subtilis cells were incubated at 37° C. overnight in TSB. C. albicans cells were cultured in YMB at room temperature. C. neoformans were inoculated in MHB broth and grew overnight at 37° C. with shaking at 250 rpm. The optical density readings of bacterial solutions were monitored by measuring OD600nm in predetermined times (0 hours and 18 hours for B. subtilis while 0 hours and 24 hours for C. albicans). The assay was performed in four replicates for each sample and the experiments were repeated at least three times.

[2] = tested on: Candida albicans (C. albicans) (ATCC No. 10231); assay: MIC, broth microdilution, C. albicans; assay type: cell-based; details: summary statement
Protocol: as §1

Row | Compound | concentration at which active inhibitor of C. neoformans [1] | concentration at which active inhibitor of C. albicans [2]
1 | NCCNC(=O)Nc1ccc(CNC(=O)c2ccc(C(=O)NCc3ccc(NC(=O)NCCN)cc3)cc2)cc1 [CBU5] | less than 250 mg/L | less than 250 mg/L
2 | NCCCCCCNC(=O)Nc1ccc(CNC(=O)c2ccc(C(=O)NCc3ccc(NC(=O)NCCCCCCN)cc3)cc2)cc1 [CBU6] | less than 250 mg/L | less than 250 mg/L
3 | NCc1ccc(CNC(=O)Nc2ccc(CNC(=O)c3ccc(C(=O)NCc4ccc(NC(=O)NCc5ccc(CN)cc5)cc4)cc3)cc2)cc1 [CBU7] | less than 250 mg/L | less than 250 mg/L
